From publication PMC3510486, “The structural basis for the interaction between the CAF1 nuclease and the NOT1 scaffold of the human CCR4–NOT deadenylase complex” (Nucleic Acids Research, 2012)
These are yes or no findings as the source states them, for the method shown. In cells and extracts the contact can be indirect. Some entries that bind do so weakly or less than the wild type.

Amino acid sequences for entries named in this document (tags omitted). A change or cut given only in a name is not applied to a line headed by its entry. Chains listed by the source or under a name are the forms on record and can include a tag or linker. Residues count along the entry.
UniProt Q9UFF9: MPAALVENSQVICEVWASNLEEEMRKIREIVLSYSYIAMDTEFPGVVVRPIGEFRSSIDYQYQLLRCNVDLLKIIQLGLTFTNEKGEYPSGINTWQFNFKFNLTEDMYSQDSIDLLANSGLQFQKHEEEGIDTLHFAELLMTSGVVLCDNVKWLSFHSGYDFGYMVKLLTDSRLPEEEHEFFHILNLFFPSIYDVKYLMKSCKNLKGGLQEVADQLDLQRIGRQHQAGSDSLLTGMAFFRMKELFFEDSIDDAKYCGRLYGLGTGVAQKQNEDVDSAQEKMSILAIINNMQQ
UniProt A5YKK6: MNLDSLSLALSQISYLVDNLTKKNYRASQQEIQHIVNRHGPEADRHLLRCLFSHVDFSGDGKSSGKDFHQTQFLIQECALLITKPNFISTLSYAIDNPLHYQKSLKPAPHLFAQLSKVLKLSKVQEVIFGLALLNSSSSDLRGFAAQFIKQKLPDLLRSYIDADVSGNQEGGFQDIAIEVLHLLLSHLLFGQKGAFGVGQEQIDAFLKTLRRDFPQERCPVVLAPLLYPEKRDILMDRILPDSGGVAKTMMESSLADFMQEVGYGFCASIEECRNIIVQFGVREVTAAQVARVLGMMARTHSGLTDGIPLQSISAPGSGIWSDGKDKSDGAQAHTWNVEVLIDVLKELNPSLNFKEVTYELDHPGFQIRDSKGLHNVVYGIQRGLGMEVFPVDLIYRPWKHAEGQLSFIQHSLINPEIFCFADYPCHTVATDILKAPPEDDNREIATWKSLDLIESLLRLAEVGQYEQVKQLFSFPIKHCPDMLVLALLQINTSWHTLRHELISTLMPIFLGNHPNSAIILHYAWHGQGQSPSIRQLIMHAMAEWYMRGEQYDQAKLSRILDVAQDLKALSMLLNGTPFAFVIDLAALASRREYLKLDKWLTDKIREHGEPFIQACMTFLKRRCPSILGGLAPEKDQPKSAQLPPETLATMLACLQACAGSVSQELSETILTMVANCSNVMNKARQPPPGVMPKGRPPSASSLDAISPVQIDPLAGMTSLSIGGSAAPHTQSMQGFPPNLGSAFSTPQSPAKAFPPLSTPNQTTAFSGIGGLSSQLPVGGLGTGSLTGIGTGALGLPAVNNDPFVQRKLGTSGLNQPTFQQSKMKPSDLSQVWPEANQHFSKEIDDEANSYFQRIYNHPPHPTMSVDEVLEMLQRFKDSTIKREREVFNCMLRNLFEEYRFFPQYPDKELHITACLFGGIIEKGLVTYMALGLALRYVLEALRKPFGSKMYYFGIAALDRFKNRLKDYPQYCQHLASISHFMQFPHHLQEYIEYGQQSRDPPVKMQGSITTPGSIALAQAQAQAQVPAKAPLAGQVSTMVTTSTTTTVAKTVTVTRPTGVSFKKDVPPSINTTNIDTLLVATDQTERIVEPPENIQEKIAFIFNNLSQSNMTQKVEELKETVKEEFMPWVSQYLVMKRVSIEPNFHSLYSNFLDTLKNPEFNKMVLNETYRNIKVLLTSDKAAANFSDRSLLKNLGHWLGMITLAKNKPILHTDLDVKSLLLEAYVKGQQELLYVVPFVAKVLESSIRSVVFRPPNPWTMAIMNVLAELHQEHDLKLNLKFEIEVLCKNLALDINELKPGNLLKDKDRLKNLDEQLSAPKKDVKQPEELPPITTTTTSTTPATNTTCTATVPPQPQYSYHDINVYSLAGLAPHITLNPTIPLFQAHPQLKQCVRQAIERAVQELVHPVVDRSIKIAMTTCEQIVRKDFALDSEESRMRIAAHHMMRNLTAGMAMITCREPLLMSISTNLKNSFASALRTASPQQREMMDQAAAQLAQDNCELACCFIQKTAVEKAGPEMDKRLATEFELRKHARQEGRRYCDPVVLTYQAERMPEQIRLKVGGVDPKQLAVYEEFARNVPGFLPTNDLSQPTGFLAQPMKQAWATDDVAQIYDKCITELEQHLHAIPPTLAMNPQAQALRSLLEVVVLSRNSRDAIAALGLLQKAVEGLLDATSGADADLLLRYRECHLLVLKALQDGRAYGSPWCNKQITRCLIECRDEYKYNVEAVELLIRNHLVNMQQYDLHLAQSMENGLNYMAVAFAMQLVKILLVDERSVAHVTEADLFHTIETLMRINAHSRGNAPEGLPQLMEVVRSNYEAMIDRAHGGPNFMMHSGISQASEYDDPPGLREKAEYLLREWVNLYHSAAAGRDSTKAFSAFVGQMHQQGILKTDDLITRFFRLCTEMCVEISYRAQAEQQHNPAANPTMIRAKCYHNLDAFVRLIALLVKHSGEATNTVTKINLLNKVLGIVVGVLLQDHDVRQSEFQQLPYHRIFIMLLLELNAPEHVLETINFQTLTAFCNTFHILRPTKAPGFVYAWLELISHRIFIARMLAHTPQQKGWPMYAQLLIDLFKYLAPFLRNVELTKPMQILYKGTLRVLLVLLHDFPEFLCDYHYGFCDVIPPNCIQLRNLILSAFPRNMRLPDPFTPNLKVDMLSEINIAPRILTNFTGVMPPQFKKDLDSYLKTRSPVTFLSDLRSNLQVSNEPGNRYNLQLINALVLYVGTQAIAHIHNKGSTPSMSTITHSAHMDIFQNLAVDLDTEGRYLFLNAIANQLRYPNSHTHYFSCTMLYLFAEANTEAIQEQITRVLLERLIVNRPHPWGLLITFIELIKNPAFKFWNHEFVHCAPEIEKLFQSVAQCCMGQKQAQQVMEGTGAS
MBP-tagged HsNOT1 middle domain (amino acids 1085-1605): residues 1085-1605 of A5YKK6

Key:
[1] = biological target: GST-tagged Hs POP2 (human) (UniProt Q9UFF9); assay: pull-down; cleared E. coli lysates mixed at about 1:1; GST-tagged protein held on glutathione agarose; 10 mM HEPES pH 7.6, 150 mM NaCl, 0.2% Triton X-100, 1 mM DTT, 4°C; SDS-PAGE, coomassie
[2] = biological target: GFP-tagged human NOT1, full-length (human) (UniProt A5YKK6); assay: co-IP; HEK293T cells co-transfected with GFP- and HA-tagged proteins; RIPA lysate treated with RNase A; polyclonal anti-GFP antibody and GammaBind G Sepharose, 4°C; western blotting

Row | binding [1] | binding [2] | Substance
1 | binds |  | MBP-tagged HsNOT1 middle domain (amino acids 1085-1605) (from UniProt A5YKK6-1 1085-1605) (domain or fragment)
2 |  | binds | HA-tagged human POP2 (from UniProt Q9UFF9 1-292) (enzyme)
